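Vaccinia-infected cells with a two-color viral stage reporter; Venus fluorescence read on a plate reader; the cell line is not named here; timing not stated here.
The test concentration is not given here.
Percent change in Venus reporter signal; lower (more negative) values mean stronger inhibition of that viral stage.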

Values are in %.
The controls that fix the scale are not given here.
Common to all entries: measured here: Venus reporter, other viral stage.
This is a side read-out of the assay, for part of the compounds, not drawn at random.

Cc1ccccc1-c1ccc([C@@H]2[C@H]3CN(C(=O)Nc4ccccc4)CCCCN3[C@H]2CO)cc1 read activity change (Venus) -53.07%. For COc1ccc2c3c([nH]c2c1)[C@H](CO)N(C(=O)C1CC1)CC31CCN(Cc2cccc(F)c2)CC1 the result was activity change (Venus) -47.34%. Result for C[C@@H]1CCCCO[C@H](CN(C)Cc2ccccc2)[C@H](C)CN([C@@H](C)CO)C(=O)c2cc(NC(=O)Cc3ccccc3)ccc2O1 was activity change (Venus) -67.32%. C[C@@H]1CN([C@@H](C)CO)C(=O)Cc2cc(NC(=O)C3CC3)ccc2O[C@H]1CN(C)Cc1ccc(C(F)(F)F)cc1 gave activity change (Venus) -40.59%. For C[C@@H]1CN([C@@H](C)CO)C(=O)c2cc(NS(=O)(=O)c3ccccc3)ccc2O[C@H]1CN(C)Cc1ccc(C(F)(F)F)cc1 the result was activity change (Venus) -24.23%. With C[C@@H]1CN([C@H](C)CO)C(=O)c2cc(NS(=O)(=O)c3ccccc3)ccc2O[C@@H](C)CCCCO[C@@H]1CN(C)Cc1ccc2c(c1)OCO2 the assay gave activity change (Venus) -42.07%. With Cc1noc(C)c1S(=O)(=O)Nc1ccc2c(c1)CC(=O)N([C@H](C)CO)C[C@H](C)[C@@H](CN(C)Cc1ccc(Cl)c(Cl)c1)O2 the assay gave activity change (Venus) -41.28%.

C/C=C/c1ccc2c(c1)O[C@H](CN(C)S(=O)(=O)c1ccccc1)[C@H](C)CN([C@@H](C)CO)S2(=O)=O gave activity change (Venus) -30.75%. COc1ccccc1S(=O)(=O)N(C)C[C@H]1Oc2ncc(-c3ccc(C)cc3)cc2C(=O)N([C@@H](C)CO)C[C@H]1C read activity change (Venus) -32.72%. Cn1cnc(S(=O)(=O)N2CCCCN3[C@H](C2)[C@H](c2ccc(-c4ccccc4)cc2)[C@@H]3CO)c1 gave activity change (Venus) -45.22%. With C[C@@H]1CN([C@@H](C)CO)C(=O)c2cc(NC(=O)NC3CCCCC3)ccc2O[C@@H](C)CCCCO[C@H]1CN(C)Cc1ccccc1 the assay gave activity change (Venus) -53.03%. Result for CC(=O)N(C)C[C@@H]1Oc2cc(C#Cc3ccccc3)ccc2S(=O)(=O)N([C@H](C)CO)C[C@@H]1C was activity change (Venus) -31.14%. With C[C@@H]1CN([C@H](C)CO)C(=O)c2cc(C#Cc3cccc(F)c3)cnc2O[C@H]1CN(C)C(=O)c1ccccc1F the assay gave activity change (Venus) -35.72%. C[C@H](CO)N1C[C@H](C)[C@H](CN(C)C(=O)NC2CCCCC2)Oc2ncc(C#Cc3ccccc3)cc2C1=O gave activity change (Venus) -22.78%.

Result for N#C[C@@H]1[C@H](c2ccc(C#Cc3ccc(F)cc3)cc2)[C@@H](CO)N1C(=O)Nc1ccc(F)cc1 was activity change (Venus) -21%. COc1cccc(NC(=O)N(C)C[C@H]2Oc3cc(-c4ccccc4F)ccc3S(=O)(=O)N([C@@H](C)CO)C[C@@H]2C)c1 gave activity change (Venus) -41.1%. C[C@@H]1CN([C@H](C)CO)C(=O)c2c(c3ccccc3n2C)-c2ccccc2CO[C@H]1CN(C)S(=O)(=O)c1ccccc1F read activity change (Venus) -42.36%. Cc1ccc(S(=O)(=O)N(C)C[C@@H]2OCCCC[C@H](C)Oc3ccc(NC(=O)NC4CCCCC4)cc3C(=O)N([C@@H](C)CO)C[C@@H]2C)cc1 gave activity change (Venus) -40.19%. Cc1ccc(S(=O)(=O)N(C)C[C@@H]2OCCCC[C@@H](C)Oc3ccc(NS(=O)(=O)c4c(C)noc4C)cc3C(=O)N([C@@H](C)CO)C[C@H]2C)cc1 read activity change (Venus) -50.04%. CC(C)CC#Cc1ccc2c(c1)O[C@@H](CN(C)C(=O)c1ccncc1)[C@H](C)CN([C@H](C)CO)S2(=O)=O read activity change (Venus) -25.19%. C[C@H](CO)N1C[C@H](C)[C@@H](CN(C)S(=O)(=O)c2cccc(F)c2)Oc2ncc(-c3cccc(F)c3)cc2C1=O gave activity change (Venus) -35.92%.

Cc1ccccc1S(=O)(=O)N(C)C[C@H]1OCc2ccccc2-c2c(n(C)c3ccccc23)C(=O)N([C@H](C)CO)C[C@H]1C read activity change (Venus) -31.17%. For CC(C)NC(=O)Nc1ccc2c(c1)C(=O)N([C@@H](C)CO)C[C@H](C)[C@@H](CN(C)S(=O)(=O)c1ccc(Cl)cc1)OCCCC[C@H](C)O2 the result was activity change (Venus) -38.15%. Result for C[C@@H]1CN([C@@H](C)CO)C(=O)Cc2cc(NS(=O)(=O)c3ccc(Cl)cc3)ccc2O[C@H]1CN(C)Cc1ccc(Cl)c(Cl)c1 was activity change (Venus) -53.39%. C[C@@H]1CCCCO[C@H](CN(C)C(=O)Nc2ccc(F)cc2)[C@H](C)CN([C@H](C)CO)C(=O)c2cc(NS(=O)(=O)c3cccs3)ccc2O1 gave activity change (Venus) -25.68%. With Cc1ccc(S(=O)(=O)Nc2ccc3c(c2)C(=O)N([C@H](C)CO)C[C@@H](C)[C@H](CN(C)Cc2ccc4c(c2)OCO4)OCCCC[C@@H](C)O3)cc1 the assay gave activity change (Venus) -63.87%. For CN1C(=O)c2cc(NC(=O)c3cccc(F)c3)ccc2OC[C@@H]2O[C@@H](CC(=O)NCC3CCCCC3)CC[C@@H]21 the result was activity change (Venus) -23.08%. COc1cccc(S(=O)(=O)N2CCCCN3[C@H](CO)[C@@H](c4ccc(-c5ccccc5)cc4)[C@H]3C2)c1 gave activity change (Venus) -29.21%.

With Cc1noc(C)c1NC(=O)Nc1ccc2c(c1)C(=O)N([C@@H](C)CO)C[C@H](C)[C@@H](CN(C)Cc1ccc(C(F)(F)F)cc1)OCCCC[C@@H](C)O2 the assay gave activity change (Venus) -50.13%. O=C(Nc1ccccc1)N1CCCCN2[C@H](CO)[C@H](c3ccc(-c4ccccc4)cc3)[C@H]2C1 gave activity change (Venus) -48.88%. Result for O=C(C[C@H]1CC[C@@H]2[C@H](COC[C@H](O)CN2Cc2ccc(Oc3ccccc3)cc2)O1)N1CCN(c2ccccc2)CC1 was activity change (Venus) -55.91%. COc1ccc(CN2CC3(C2)CN(C(=O)CN(C)C)[C@H](CO)c2[nH]c4cc(OC)ccc4c23)cc1 read activity change (Venus) -50.05%. CC(C)CC#Cc1cnc2c(c1)C(=O)N([C@@H](C)CO)C[C@H](C)[C@@H](CN(C)C(=O)c1cccc(F)c1)O2 read activity change (Venus) -28.96%.

The results are deposited in PubChem (AID1053133; Broad Institute, 2014).